Measured values from the supplement of paper PMC6411743.
± gives the standard deviation of the averaged measurements. The entries are a selection whose mix differs from that of the whole data set. Small differences around the control level are noise.

Amino acid sequences for entries named in this document (tags omitted). A change or cut given only in a name is not applied to a line headed by its entry.
UniProt O60828: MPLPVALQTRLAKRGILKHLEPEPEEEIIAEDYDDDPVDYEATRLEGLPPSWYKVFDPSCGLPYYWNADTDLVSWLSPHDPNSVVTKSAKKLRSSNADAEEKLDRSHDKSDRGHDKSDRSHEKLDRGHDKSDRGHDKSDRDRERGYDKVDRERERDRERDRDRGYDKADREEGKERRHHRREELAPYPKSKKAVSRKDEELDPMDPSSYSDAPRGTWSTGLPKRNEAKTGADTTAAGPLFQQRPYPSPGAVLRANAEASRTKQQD
UniProt O60830: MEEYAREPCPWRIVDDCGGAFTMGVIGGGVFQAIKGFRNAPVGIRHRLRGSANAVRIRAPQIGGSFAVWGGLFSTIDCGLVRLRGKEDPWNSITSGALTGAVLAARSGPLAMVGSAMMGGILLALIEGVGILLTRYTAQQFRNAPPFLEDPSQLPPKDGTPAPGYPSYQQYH
UniProt O94768: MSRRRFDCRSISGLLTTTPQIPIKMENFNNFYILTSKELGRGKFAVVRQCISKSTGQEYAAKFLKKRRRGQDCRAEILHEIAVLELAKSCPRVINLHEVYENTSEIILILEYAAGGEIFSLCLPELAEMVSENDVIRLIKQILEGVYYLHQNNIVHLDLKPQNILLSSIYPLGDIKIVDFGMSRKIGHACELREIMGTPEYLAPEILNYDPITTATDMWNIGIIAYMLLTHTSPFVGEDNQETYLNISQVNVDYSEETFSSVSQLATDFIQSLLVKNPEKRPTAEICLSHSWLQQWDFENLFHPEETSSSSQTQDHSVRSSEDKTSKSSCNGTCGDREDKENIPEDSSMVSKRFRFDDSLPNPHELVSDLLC
UniProt O75995: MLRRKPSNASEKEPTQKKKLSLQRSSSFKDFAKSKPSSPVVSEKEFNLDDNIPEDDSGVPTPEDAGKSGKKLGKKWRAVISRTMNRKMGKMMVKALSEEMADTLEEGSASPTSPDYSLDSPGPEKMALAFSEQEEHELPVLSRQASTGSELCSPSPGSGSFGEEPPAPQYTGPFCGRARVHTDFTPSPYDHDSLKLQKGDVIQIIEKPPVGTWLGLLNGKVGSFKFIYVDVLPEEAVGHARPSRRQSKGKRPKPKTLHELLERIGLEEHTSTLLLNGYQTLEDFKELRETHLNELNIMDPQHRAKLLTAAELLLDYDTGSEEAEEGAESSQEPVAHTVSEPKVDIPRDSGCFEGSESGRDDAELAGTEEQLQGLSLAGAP
UniProt O94915: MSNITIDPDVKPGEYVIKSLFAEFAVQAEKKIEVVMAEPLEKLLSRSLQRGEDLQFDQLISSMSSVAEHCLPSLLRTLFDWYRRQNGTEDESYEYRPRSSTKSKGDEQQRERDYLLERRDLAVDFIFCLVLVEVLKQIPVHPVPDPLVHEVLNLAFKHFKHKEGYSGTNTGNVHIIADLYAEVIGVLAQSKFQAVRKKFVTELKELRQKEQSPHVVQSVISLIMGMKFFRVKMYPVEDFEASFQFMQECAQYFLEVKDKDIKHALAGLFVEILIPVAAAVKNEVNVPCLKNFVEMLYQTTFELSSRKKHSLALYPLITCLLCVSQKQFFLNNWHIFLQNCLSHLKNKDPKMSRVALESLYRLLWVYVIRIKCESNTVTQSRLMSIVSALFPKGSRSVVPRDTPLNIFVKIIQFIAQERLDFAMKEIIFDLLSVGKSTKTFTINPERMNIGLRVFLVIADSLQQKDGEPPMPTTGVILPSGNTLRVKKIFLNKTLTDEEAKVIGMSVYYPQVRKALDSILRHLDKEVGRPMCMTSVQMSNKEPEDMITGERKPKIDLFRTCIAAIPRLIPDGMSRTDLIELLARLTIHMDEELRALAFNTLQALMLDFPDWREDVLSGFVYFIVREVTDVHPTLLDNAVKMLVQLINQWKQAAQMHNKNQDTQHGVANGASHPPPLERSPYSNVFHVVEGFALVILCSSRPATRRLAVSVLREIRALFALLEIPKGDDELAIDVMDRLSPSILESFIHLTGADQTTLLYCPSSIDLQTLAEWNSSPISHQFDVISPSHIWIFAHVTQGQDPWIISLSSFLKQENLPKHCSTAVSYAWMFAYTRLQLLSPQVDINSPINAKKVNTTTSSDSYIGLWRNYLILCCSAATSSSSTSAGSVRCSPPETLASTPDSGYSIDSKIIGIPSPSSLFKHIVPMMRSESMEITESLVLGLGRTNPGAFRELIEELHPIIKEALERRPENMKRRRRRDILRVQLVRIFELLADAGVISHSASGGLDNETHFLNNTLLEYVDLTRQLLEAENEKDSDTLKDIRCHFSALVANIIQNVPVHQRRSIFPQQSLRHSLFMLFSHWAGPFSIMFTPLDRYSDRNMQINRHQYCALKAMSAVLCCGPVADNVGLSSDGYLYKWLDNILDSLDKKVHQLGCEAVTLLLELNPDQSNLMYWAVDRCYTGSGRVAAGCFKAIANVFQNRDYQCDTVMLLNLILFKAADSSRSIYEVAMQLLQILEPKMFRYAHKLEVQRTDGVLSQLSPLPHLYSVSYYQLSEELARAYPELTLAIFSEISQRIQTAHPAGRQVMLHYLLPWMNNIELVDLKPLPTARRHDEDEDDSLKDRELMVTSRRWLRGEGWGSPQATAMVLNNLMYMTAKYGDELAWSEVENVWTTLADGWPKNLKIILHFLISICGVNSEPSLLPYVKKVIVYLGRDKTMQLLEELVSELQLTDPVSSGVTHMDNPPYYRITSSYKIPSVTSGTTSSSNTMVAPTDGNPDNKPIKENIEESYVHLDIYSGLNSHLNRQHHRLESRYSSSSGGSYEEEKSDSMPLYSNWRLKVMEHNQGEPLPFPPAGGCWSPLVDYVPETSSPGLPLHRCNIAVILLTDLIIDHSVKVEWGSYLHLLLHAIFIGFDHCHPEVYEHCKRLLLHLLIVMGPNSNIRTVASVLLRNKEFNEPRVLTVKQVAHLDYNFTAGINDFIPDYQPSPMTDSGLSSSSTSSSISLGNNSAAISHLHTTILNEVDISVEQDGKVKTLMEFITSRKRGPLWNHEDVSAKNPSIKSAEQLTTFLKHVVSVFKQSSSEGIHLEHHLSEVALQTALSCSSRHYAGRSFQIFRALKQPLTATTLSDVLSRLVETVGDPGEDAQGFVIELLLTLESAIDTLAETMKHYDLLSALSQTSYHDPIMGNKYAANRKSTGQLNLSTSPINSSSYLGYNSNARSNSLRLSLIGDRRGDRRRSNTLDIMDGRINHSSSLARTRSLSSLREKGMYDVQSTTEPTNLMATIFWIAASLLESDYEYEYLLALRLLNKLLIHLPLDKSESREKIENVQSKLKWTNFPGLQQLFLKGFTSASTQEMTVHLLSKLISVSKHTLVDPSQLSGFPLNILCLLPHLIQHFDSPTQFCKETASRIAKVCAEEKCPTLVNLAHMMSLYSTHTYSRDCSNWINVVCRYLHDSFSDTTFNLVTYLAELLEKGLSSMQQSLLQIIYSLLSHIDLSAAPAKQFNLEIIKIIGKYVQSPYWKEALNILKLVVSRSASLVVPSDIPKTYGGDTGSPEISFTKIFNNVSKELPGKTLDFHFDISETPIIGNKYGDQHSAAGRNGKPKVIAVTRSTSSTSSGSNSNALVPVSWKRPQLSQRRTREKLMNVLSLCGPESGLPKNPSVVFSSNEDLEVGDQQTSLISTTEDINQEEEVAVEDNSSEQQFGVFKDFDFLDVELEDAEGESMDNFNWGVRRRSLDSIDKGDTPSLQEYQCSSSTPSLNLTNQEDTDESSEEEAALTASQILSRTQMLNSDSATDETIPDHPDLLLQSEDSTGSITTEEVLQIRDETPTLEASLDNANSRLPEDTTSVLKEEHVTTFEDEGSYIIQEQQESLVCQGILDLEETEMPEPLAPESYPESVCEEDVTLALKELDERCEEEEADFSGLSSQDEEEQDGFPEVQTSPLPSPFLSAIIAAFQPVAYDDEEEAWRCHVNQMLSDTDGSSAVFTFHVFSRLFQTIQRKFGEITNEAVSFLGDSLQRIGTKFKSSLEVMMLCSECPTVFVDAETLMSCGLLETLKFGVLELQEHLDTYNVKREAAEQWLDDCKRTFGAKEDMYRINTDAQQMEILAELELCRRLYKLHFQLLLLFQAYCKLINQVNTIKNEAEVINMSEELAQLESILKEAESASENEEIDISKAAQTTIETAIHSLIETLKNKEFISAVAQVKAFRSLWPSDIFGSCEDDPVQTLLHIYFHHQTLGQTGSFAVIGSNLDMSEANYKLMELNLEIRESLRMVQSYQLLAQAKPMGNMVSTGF
UniProt O95793: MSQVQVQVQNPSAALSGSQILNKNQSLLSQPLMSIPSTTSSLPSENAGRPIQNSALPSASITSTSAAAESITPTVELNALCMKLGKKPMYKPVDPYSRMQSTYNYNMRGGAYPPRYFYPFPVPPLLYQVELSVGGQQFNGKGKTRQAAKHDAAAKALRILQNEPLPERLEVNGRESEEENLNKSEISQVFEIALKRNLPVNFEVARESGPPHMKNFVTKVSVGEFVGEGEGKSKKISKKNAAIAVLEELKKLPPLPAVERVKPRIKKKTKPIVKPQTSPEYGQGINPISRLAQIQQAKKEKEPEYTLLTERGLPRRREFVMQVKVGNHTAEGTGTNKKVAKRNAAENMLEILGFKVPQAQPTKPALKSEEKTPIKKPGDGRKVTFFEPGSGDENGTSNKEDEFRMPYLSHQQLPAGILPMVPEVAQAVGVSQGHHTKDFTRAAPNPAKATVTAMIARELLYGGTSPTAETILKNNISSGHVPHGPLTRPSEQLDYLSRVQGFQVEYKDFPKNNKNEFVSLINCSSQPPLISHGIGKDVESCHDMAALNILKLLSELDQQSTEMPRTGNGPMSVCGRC
UniProt O75822, whole entry: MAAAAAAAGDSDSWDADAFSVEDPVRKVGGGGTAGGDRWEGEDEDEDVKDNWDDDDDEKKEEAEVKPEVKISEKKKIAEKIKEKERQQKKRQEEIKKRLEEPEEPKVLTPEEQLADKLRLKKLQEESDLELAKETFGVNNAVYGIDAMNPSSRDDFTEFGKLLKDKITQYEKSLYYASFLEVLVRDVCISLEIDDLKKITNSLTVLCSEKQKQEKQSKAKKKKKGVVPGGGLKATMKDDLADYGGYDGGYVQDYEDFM
UniProt O75348, whole entry: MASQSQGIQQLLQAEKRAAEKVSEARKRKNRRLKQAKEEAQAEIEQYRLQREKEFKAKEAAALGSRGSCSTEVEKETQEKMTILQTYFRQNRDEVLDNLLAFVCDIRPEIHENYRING
UniProt O76094: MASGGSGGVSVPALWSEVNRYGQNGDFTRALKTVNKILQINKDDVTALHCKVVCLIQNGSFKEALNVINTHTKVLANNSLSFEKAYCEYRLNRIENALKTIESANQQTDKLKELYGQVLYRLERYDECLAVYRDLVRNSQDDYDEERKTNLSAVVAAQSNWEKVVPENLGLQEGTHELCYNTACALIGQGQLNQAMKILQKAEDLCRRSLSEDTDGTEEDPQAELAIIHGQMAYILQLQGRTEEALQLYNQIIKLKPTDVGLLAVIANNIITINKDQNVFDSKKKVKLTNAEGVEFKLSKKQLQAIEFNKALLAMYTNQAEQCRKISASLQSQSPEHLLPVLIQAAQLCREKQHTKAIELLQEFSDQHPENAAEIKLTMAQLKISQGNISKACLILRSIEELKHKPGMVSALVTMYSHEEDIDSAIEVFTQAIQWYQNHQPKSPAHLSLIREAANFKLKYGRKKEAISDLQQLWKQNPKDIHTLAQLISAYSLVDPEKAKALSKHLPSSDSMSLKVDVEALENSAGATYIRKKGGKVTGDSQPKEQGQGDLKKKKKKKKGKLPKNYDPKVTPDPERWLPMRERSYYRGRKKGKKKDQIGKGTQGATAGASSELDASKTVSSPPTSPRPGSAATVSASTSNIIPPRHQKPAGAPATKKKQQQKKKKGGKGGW
UniProt O75177, whole entry: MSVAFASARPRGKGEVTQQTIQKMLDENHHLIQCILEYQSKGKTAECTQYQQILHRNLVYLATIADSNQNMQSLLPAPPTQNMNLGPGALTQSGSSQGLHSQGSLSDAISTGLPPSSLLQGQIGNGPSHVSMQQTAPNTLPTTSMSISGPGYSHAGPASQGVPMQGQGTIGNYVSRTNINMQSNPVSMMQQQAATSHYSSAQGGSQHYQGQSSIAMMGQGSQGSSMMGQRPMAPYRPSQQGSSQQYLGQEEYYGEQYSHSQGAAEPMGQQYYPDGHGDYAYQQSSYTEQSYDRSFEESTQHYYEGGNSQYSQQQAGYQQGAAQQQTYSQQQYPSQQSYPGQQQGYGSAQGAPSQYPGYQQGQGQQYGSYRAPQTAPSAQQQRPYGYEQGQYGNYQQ
UniProt O75494: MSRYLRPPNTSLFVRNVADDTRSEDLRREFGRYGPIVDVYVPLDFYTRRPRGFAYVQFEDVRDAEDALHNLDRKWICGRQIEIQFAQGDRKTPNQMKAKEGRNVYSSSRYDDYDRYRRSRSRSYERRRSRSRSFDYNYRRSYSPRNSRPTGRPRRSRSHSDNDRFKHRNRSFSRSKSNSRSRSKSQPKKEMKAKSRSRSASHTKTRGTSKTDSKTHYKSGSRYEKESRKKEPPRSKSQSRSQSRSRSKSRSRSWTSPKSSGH
UniProt O95183: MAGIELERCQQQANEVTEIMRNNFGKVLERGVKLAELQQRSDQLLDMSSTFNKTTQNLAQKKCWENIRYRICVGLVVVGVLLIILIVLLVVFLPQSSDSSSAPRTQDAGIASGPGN

Compound: Nc1ncnc2c1ncn2[C@@H]1O[C@H](COP(=O)(O)OP(=O)(O)OP(=O)(O)O)[C@@H](O)[C@H]1O [adenosine triphosphate]
Assay: NP40-soluble protein abundance relative to vehicle (solubility fold change) (ratio); higher = more soluble protein in presence of ATP
Outline: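 Each value is a fold change relative to the detergent-processed vehicle, calculated per replicate from vsn-normalised intensities. Jurkat crude lysate received eight concentrations (0.1 to 10 mM) for 10 min at room temperature and 3 min at 37 °C, then was solubilised in 0.8% NP40 with benzonase (60 min, 4 °C). The ultracentrifuged supernatant was TMT-labelled and run by LC-MS/MS in three independent experiments.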

Target: UniProt O94855 and related entries
- NP40-soluble protein abundance (concentration: 0.1mM): 1.01 ± 0.089
- NP40-soluble protein abundance (concentration: 0.5mM): 1 ± 0.032

Target: UniProt O60828 and related entries
- NP40-soluble protein abundance (concentration: 0.1mM): 0.97 ± 0.017
- NP40-soluble protein abundance (concentration: 0.5mM): 1 ± 0.035

Target: STAMBP (UniProt O95630)
- NP40-soluble protein abundance (concentration: 0.1mM): 1.03 ± 0.044
- NP40-soluble protein abundance (concentration: 0.5mM): 1.03 ± 0.048

Target: UniProt O60645 and related entries
- NP40-soluble protein abundance (concentration: 0.1mM): 1.06 ± 0.033
- NP40-soluble protein abundance (concentration: 0.5mM): 1.08 ± 0.048

Target: UniProt O60830 and related entries
- NP40-soluble protein abundance (concentration: 0.1mM): 0.92 ± 0.036
- NP40-soluble protein abundance (concentration: 0.5mM): 0.906 ± 0.02

Target: ETHE1 (UniProt O95571)
- NP40-soluble protein abundance (concentration: 0.1mM): 1.01 ± 0.043
- NP40-soluble protein abundance (concentration: 0.5mM): 1.03 ± 0.071

Target: KATNA1 (UniProt O75449)
- NP40-soluble protein abundance (concentration: 0.1mM): 0.991 ± 0.032
- NP40-soluble protein abundance (concentration: 0.5mM): 1.02 ± 0.051

Target: VAPB (UniProt O95292)
- NP40-soluble protein abundance (concentration: 0.1mM): 0.991 ± 0.022
- NP40-soluble protein abundance (concentration: 0.5mM): 1 ± 0.026

Target: WDR1 (UniProt O75083)
- NP40-soluble protein abundance (concentration: 0.1mM): 1.03 ± 0.066
- NP40-soluble protein abundance (concentration: 0.5mM): 1.02 ± 0.065

Target: MED26 (UniProt O95402)
- NP40-soluble protein abundance (concentration: 0.1mM): 1.02 ± 0.087
- NP40-soluble protein abundance (concentration: 0.5mM): 1.11 ± 0.056

Target: HERC2 (UniProt O95714)
- NP40-soluble protein abundance (concentration: 0.1mM): 0.976 ± 0.036
- NP40-soluble protein abundance (concentration: 0.5mM): 1.04 ± 0.066

Target: ZC3H11A (UniProt O75152)
- NP40-soluble protein abundance (concentration: 0.1mM): 0.974 ± 0.029
- NP40-soluble protein abundance (concentration: 0.5mM): 0.907 ± 0.043

Target: UniProt O95169 and related entries
- NP40-soluble protein abundance (concentration: 0.1mM): 0.902 ± 0.095
- NP40-soluble protein abundance (concentration: 0.5mM): 0.874 ± 0.15

Target: NADK (UniProt O95544)
- NP40-soluble protein abundance (concentration: 0.1mM): 1.03 ± 0.057
- NP40-soluble protein abundance (concentration: 0.5mM): 0.941 ± 0.026

Target: CLPX (UniProt O76031)
- NP40-soluble protein abundance (concentration: 0.1mM): 1.02 ± 0.036
- NP40-soluble protein abundance (concentration: 0.5mM): 1.02 ± 0.031

Target: UniProt O94768
- NP40-soluble protein abundance (concentration: 0.1mM): 1.1 ± 0.023
- NP40-soluble protein abundance (concentration: 0.5mM): 1.12 ± 0.053

Target: UniProt O60504 and related entries
- NP40-soluble protein abundance (concentration: 0.1mM): 1.02 ± 0.013
- NP40-soluble protein abundance (concentration: 0.5mM): 1.01 ± 0.024

Target: UniProt O95628 and related entries
- NP40-soluble protein abundance (concentration: 0.1mM): 1 ± 0.028
- NP40-soluble protein abundance (concentration: 0.5mM): 0.984 ± 0.014

Target: SF3B1 (UniProt O75533)
- NP40-soluble protein abundance (concentration: 0.1mM): 1.05 ± 0.033
- NP40-soluble protein abundance (concentration: 0.5mM): 1.13 ± 0.043

Target: SASH3 (UniProt O75995)
- NP40-soluble protein abundance (concentration: 0.1mM): 0.993 ± 0.043
- NP40-soluble protein abundance (concentration: 0.5mM): 0.808 ± 0.11

Target: IPO13 (UniProt O94829)
- NP40-soluble protein abundance (concentration: 0.1mM): 1.02 ± 0.17
- NP40-soluble protein abundance (concentration: 0.5mM): 0.953 ± 0.11

Target: WFS1 (UniProt O76024)
- NP40-soluble protein abundance (concentration: 0.1mM): 1.11 ± 0.028
- NP40-soluble protein abundance (concentration: 0.5mM): 0.948 ± 0.064

Target: UniProt O75608 and related entries
- NP40-soluble protein abundance (concentration: 0.1mM): 0.933 ± 0.03
- NP40-soluble protein abundance (concentration: 0.5mM): 0.897 ± 0.09

Target: DNAJC8 (UniProt O75937)
- NP40-soluble protein abundance (concentration: 0.1mM): 0.947 ± 0.094
- NP40-soluble protein abundance (concentration: 0.5mM): 0.919 ± 0.08

Target: TIPRL (UniProt O75663)
- NP40-soluble protein abundance (concentration: 0.1mM): 1.08 ± 0.052
- NP40-soluble protein abundance (concentration: 0.5mM): 1.04 ± 0.082

Target: TMCC1 (UniProt O94876)
- NP40-soluble protein abundance (concentration: 0.1mM): 1.02 ± 0.048
- NP40-soluble protein abundance (concentration: 0.5mM): 1.01 ± 0.037

Target: ERAL1 (UniProt O75616)
- NP40-soluble protein abundance (concentration: 0.1mM): 1.1 ± 0.12
- NP40-soluble protein abundance (concentration: 0.5mM): 1.11 ± 0.18

Target: UniProt O95487 and related entries
- NP40-soluble protein abundance (concentration: 0.1mM): 1.06 ± 0.035
- NP40-soluble protein abundance (concentration: 0.5mM): 1.06 ± 0.024

Target: FRYL (UniProt O94915)
- NP40-soluble protein abundance (concentration: 0.1mM): 1.04 ± 0.06
- NP40-soluble protein abundance (concentration: 0.5mM): 1.08 ± 0.068

Target: UniProt O95793 and related entries
- NP40-soluble protein abundance (concentration: 0.1mM): 0.983 ± 0.043
- NP40-soluble protein abundance (concentration: 0.5mM): 0.991 ± 0.029

Target: UniProt O75925 and related entries
- NP40-soluble protein abundance (concentration: 0.1mM): 0.961 ± 0.045
- NP40-soluble protein abundance (concentration: 0.5mM): 0.925 ± 0.043

Target: TOX (UniProt O94900)
- NP40-soluble protein abundance (concentration: 0.1mM): 0.922 ± 0.053
- NP40-soluble protein abundance (concentration: 0.5mM): 0.915 ± 0.1

Target: KIF4A (UniProt O95239)
- NP40-soluble protein abundance (concentration: 0.1mM): 1.02 ± 0.019
- NP40-soluble protein abundance (concentration: 0.5mM): 1.03 ± 0.035

Target: UniProt O75822 and related entries
- NP40-soluble protein abundance (concentration: 0.1mM): 0.903 ± 0.054
- NP40-soluble protein abundance (concentration: 0.5mM): 0.781 ± 0.068

Target: ATP6V1G1 (UniProt O75348)
- NP40-soluble protein abundance (concentration: 0.1mM): 0.909 ± 0.094
- NP40-soluble protein abundance (concentration: 0.5mM): 0.881 ± 0.16

Target: RAB3D (UniProt O95716)
- NP40-soluble protein abundance (concentration: 0.1mM): 1.02 ± 0.14
- NP40-soluble protein abundance (concentration: 0.5mM): 1.01 ± 0.068

Target: RNGTT (UniProt O60942)
- NP40-soluble protein abundance (concentration: 0.1mM): 1.05 ± 0.029
- NP40-soluble protein abundance (concentration: 0.5mM): 1.06 ± 0.051

Target: UniProt O75600 and related entries
- NP40-soluble protein abundance (concentration: 0.1mM): 0.977 ± 0.031
- NP40-soluble protein abundance (concentration: 0.5mM): 1.03 ± 0.043

Target: SNX4 (UniProt O95219)
- NP40-soluble protein abundance (concentration: 0.1mM): 0.998 ± 0.043
- NP40-soluble protein abundance (concentration: 0.5mM): 0.951 ± 0.15

Target: MTRF1 (UniProt O75570)
- NP40-soluble protein abundance (concentration: 0.1mM): 1.06 ± 0.063
- NP40-soluble protein abundance (concentration: 0.5mM): 1.08 ± 0.091

Target: SMC2 (UniProt O95347)
- NP40-soluble protein abundance (concentration: 0.1mM): 1 ± 0.03
- NP40-soluble protein abundance (concentration: 0.5mM): 1.03 ± 0.067

Target: CTSV (UniProt O60911)
- NP40-soluble protein abundance (concentration: 0.1mM): 1.05 ± 0.035
- NP40-soluble protein abundance (concentration: 0.5mM): 1 ± 0.018

Target: VPS26A (UniProt O75436)
- NP40-soluble protein abundance (concentration: 0.1mM): 1.08 ± 0.11
- NP40-soluble protein abundance (concentration: 0.5mM): 1.06 ± 0.13

Target: CPD (UniProt O75976)
- NP40-soluble protein abundance (concentration: 0.1mM): 0.96 ± 0.015
- NP40-soluble protein abundance (concentration: 0.5mM): 0.942 ± 0.044

Target: SRP72 (UniProt O76094)
- NP40-soluble protein abundance (concentration: 0.1mM): 0.994 ± 0.03
- NP40-soluble protein abundance (concentration: 0.5mM): 1.03 ± 0.07

Target: UniProt O95684-2
- NP40-soluble protein abundance (concentration: 0.1mM): 0.912 ± 0.053
- NP40-soluble protein abundance (concentration: 0.5mM): 0.915 ± 0.061

Target: SS18L1 (UniProt O75177)
- NP40-soluble protein abundance (concentration: 0.1mM): 0.967 ± 0.12
- NP40-soluble protein abundance (concentration: 0.5mM): 1.01 ± 0.027

Target: UniProt O75494 and related entries
- NP40-soluble protein abundance (concentration: 0.1mM): 1.03 ± 0.02
- NP40-soluble protein abundance (concentration: 0.5mM): 1.19 ± 0.043

Target: ROCK2 (UniProt O75116)
- NP40-soluble protein abundance (concentration: 0.1mM): 0.9874 ± 0.0087
- NP40-soluble protein abundance (concentration: 0.5mM): 1.01 ± 0.045

Target: UniProt O60566 and related entries
- NP40-soluble protein abundance (concentration: 0.1mM): 1.02 ± 0.021
- NP40-soluble protein abundance (concentration: 0.5mM): 1.01 ± 0.054

Target: ZFAND5 (UniProt O76080)
- NP40-soluble protein abundance (concentration: 0.1mM): 0.833 ± 0.091
- NP40-soluble protein abundance (concentration: 0.5mM): 0.848 ± 0.099

Target: UniProt O75182 and related entries
- NP40-soluble protein abundance (concentration: 0.1mM): 1.07 ± 0.091
- NP40-soluble protein abundance (concentration: 0.5mM): 1.02 ± 0.071

Target: VAMP5 (UniProt O95183)
- NP40-soluble protein abundance (concentration: 0.1mM): 0.878 ± 0.068
- NP40-soluble protein abundance (concentration: 0.5mM): 0.825 ± 0.17

Target: UniProt O95613 and related entries
- NP40-soluble protein abundance (concentration: 0.1mM): 1.01 ± 0.11
- NP40-soluble protein abundance (concentration: 0.5mM): 1.04 ± 0.037

Target: NMT2 (UniProt O60551)
- NP40-soluble protein abundance (concentration: 0.1mM): 1.02 ± 0.032
- NP40-soluble protein abundance (concentration: 0.5mM): 1.13 ± 0.03

Target: VPS4B (UniProt O75351)
- NP40-soluble protein abundance (concentration: 0.1mM): 1.05 ± 0.048
- NP40-soluble protein abundance (concentration: 0.5mM): 1.05 ± 0.05

Target: DKC1 (UniProt O60832)
- NP40-soluble protein abundance (concentration: 0.1mM): 1.03 ± 0.059
- NP40-soluble protein abundance (concentration: 0.5mM): 1.01 ± 0.044

Target: ZNF217 (UniProt O75362)
- NP40-soluble protein abundance (concentration: 0.1mM): 0.968 ± 0.05
- NP40-soluble protein abundance (concentration: 0.5mM): 0.997 ± 0.094

Target: UniProt O95248-4|G5E933 and related entries
- NP40-soluble protein abundance (concentration: 0.1mM): 1.04 ± 0.055
- NP40-soluble protein abundance (concentration: 0.5mM): 1.02 ± 0.038

Target: UniProt O94916 and related entries
- NP40-soluble protein abundance (concentration: 0.1mM): 1 ± 0.052
- NP40-soluble protein abundance (concentration: 0.5mM): 0.9739 ± 0.0013
